Results published in patent publication US20210002378A1.
Results are given in words; binding and its absence hold for the method and conditions named.

Assays:
[1] = biological target: SEAP-His; test: ELISA: SEAP-His proteins captured by anti-6-His antibody, antibody A at one concentration, HRP anti-mouse IgG, OD450 nm as % of human EphA4-SEAP-His
[2] = biological target: SEAP-His; test: ELISA: SEAP-His proteins captured by anti-6-His antibody, antibody B at one concentration, HRP anti-human IgG, OD450 nm as % of human EphA4-SEAP-His

Row | Binder | binding [1] | binding [2]
1 | mouse anti-EphA4 monoclonal antibody (antibody A) (antibody, mouse IgG1, kappa, V domains shown) VH: QVQLKQSGPSLVQPSQSLSITCTVSGFSLTRYGVHWVRQSPGKGLEWLGVIWRGGSTDYNAAFMSRLSITKDNSKSQVFFKMNSLQADDTAIYYCAKESLFGVYYDYGYYSMDYWGQGTSVTVSS VL: DIQMTQSPSSLSASLGERVSLTCRASQEISGYLSWLQQKPDGTIKRLIYAASTLDSGVPKRFSGSRSGSDYSLTISSLESEDFADYYCLQYASYPLTFGAGTKLELKR | no binding (tested: 10 µg/mL) | –
2 | humanized anti-EphA4 monoclonal antibody (antibody B) (antibody, V domains shown) VH: QVQLVESGGGVVQPGRSLRLSCAVSGFSLTRFGVHWVRQAPGKGLEWVAVIWRGGSTDYNAAFMSRLTISKDNSKNTVYLQMNSLRAEDTAVYYCAKESLFGVYYDYGYYSMDYWGQGTTVTVSS VL: DIQMTQSPSSLSASVGDRVTITCRASQEISGYLSWLQQKPGKAPKRLIYAASTLDSGVPSRFSGSRSGTEYTLTISSLQPEDFATYYCLQYASYPLTFGGGTKVEIKR | – | no binding (tested: 10 µg/mL)
